# Test results as given in PubChem BioAssay AID1347075 (National Center for Advancing Translational Sciences (NCATS), 2019).
# Out of some 400,000 compounds screened, about 5,500 (1.4%) were called active. The inconclusive results got no clear call from the source; some entries with a clear call stand among them for comparison. The call rests on the fitted dose curve; in most records, active means well fitted cell-killing curve with a large enough effect; inconclusive means small, poorly fitted or top-dose-only effect, or effect the other way; inactive means flat fitted curve, though single readings scatter. Where the call is inconclusive, the potency comes from a doubtful curve fit.
# Assay: qHTS assay for MDR1-selective chemotherapeutics: Primary screen using the parental adenocarcinoma cell KB-3-1; further: nearly all actives have a fitted effect of over 60% in size
# Conditions: KB-3-1 viability, CellTiter-Glo ATP luminescence, 72 h; activity change, negative = cytotoxic: at 46.1 µM (top of the series)
# In short: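 Here the drug-naive KB-3-1 line serves as comparator for MDR sub-line selectivity; cells received compound titrations, 72 h at 37 °C, then CellTiter-Glo readout.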
# On the % scale 0 is the no-effect control and ±100 the full control effect; potency means the concentration at half of the fitted maximal effect.
SMILES,Potency,"activity change, negative = cytotoxic"
Cc1noc(NS(=O)(=O)c2ccc(NC(=O)CCn3c(=O)oc4ccccc43)cc2)c1C,"inconclusive: 20.6 µM [rising, single point]",
COc1ccc(CN2C(=O)CS/C2=N/N=C/c2cccs2)cc1,"inconclusive: 7.31 µM [cytotoxic, partial curve, poor fit]",
CC1(c2ccccc2Cl)NC(=O)N(CC(=O)Nc2ccc(N3CCCCC3)cc2)C1=O (stereo not given),,inactive: 4.82%
O=C(Nc1ccc([N+](=O)[O-])cc1)Nc1ccc2[nH]c(=O)[nH]c2c1,"inconclusive: 25.9 µM [rising, single point]",
CCOC(=O)C1CCCN(c2c(C(=O)c3ccc(OCC)cc3)cnc3ccccc23)C1 (stereo not given),,inactive: 0.211%
Cc1cc(NC(=O)CCS(=O)(=O)c2nc(-c3ccccc3)cc(C(F)(F)F)n2)no1,"inconclusive: 29.1 µM [cytotoxic, single point]",
Cc1ccc(N=C2N=C(N)c3ccccc32)cc1C,"inconclusive: 25.9 µM [cytotoxic, single point]",
N#CC1=C(C2CC2)CC(c2ccccc2)C(C#N)=C1N (stereo not given),,inactive: -24.5%
Oc1ccc(Cl)cc1C1=NNC(c2cccs2)C1 (stereo not given),"inconclusive: 29.1 µM [cytotoxic, single point]",
Cc1cc(NC(=O)CSc2nnc3c(C)cc4c(C)ccc(C)c4n23)no1,,inactive: -1.93%
CN1C[C@@H]2[C@@H]3C(=O)N(C)C(=O)[C@@H]3[C@](Cc3ccccc3)(C1=O)N2C(=O)c1ccccc1,,inconclusive: -87.8%
O=C(c1ccccc1)c1cn(Cc2ccc(F)cc2)c2ccccc2c1=O,"inconclusive: 16.4 µM [cytotoxic, single point]",
CN(CCOc1ccc(Br)cc1)CC(=O)Nc1cccc(S(=O)(=O)NC2=NCCC2)c1,"inconclusive: 5.8 µM [cytotoxic, partial curve, poor fit]",
Cc1cc(Cl)c(S(=O)(=O)N2CCN(c3ccccn3)CC2)cc1OCC(=O)NC1CCCCC1,"inconclusive: 18.4 µM [cytotoxic, single point]",
O=C1C=CC(=O)C(CNc2ccc(C(=O)OCc3ccccc3)cc2)=C1,active: 20.6 µM,
CCc1ccc(/C=C/C(=O)c2ccc(N3CCOCC3)cc2)cc1,"inconclusive: 16.4 µM [cytotoxic, single point]",
NC(Cc1ccc(C(F)(F)F)cc1)c1csc(Nc2ccc(C(=O)c3ccccc3)cc2)n1 (stereo not given),"inconclusive: 29.1 µM [cytotoxic, single point]",
COc1ncnc2c1ncn2CCCNCCN1CCOCC1,"inconclusive: 14.6 µM [rising, single point]",
COc1ccccc1/C=C/c1nc2ccccc2o1,"inconclusive: 29.1 µM [rising, single point]",
Cc1ccn2c(Nc3ccccc3)c(-c3ccccn3)nc2c1,"inconclusive: 29.1 µM [cytotoxic, single point]",
c1ccc(CNc2ncnc3c2cnn3Cc2ccccc2)cc1,"inconclusive: 23.1 µM [cytotoxic, single point]",
N#CC1=C(SCC(=O)NC23CC4CC(CC(C4)C2)C3)NC(=O)C(C#N)C12CCCCC2 (stereo not given),"inconclusive: 18.4 µM [cytotoxic, single point]",
COc1ccc(C)cc1NC(=O)CCNC(=O)Cn1ccc2ccccc2c1=O,"inconclusive: 23.1 µM [cytotoxic, partial curve, poor fit]",
Cc1ccc(C(=O)N/N=C/c2ccc(-c3ccccc3[N+](=O)[O-])o2)cn1,,inactive: 4.36%

SMILES,Potency,"activity change, negative = cytotoxic"
CC(=O)Nc1ccc(-c2ccnc3c2CC(C)(C(=O)NCCc2ccccc2)O3)cc1 (stereo not given),active: 25.9 µM,
COc1ccc(-n2ncc(C(=O)Nc3ccc4c(c3)OCO4)c2C2CCN(C(=O)OC(C)(C)C)CC2)cc1,"inconclusive: 18.4 µM [cytotoxic, partial curve, poor fit]",
Cc1ccc(S(=O)(=O)CC(=O)Nc2c(C)n(C)n(-c3ccccc3)c2=O)cc1,"inconclusive: 20.6 µM [rising, partial curve, poor fit]",
COc1cc(/C=C(/C#N)C(=O)Nc2ccccc2)ccc1OCc1ccc(C(=O)O)cc1,,inactive: 4.91%
CCCNC(=O)COCc1cc(-c2ccc(F)cc2)on1,,inactive: 15.1%
COc1ccc(C(CNC(=O)c2cc(S(=O)(=O)Nc3cccc(C)c3)ccc2C)N2CCCC2)cc1 (stereo not given),"inconclusive: 29.1 µM [cytotoxic, single point]",
Cc1cnc(NC(=O)CCCc2nc3ccccc3s2)s1,"inconclusive: 29.1 µM [cytotoxic, single point]",
O=C(NCc1ccccc1F)Nc1nnc([C@@H]2C[C@H](O)[C@@H](CO)O2)s1,,inactive: 0%
CCC(=O)NC(=S)Nc1ccc(NC(=O)c2ccc(C)c([N+](=O)[O-])c2)cc1,"inconclusive: 7.31 µM [rising, partial curve]",
Clc1ccccc1-c1nc(-c2ccc(Br)o2)no1,"inconclusive: 32.6 µM [cytotoxic, single point]",
Cc1ccc(C(=O)NC(=S)N2CCN(c3ccccc3F)CC2)cc1,"inconclusive: 2.06 µM [rising, partial curve, poor fit]",
Cc1cccc(Nc2ncccc2C(=O)NCc2cccs2)c1C,,inactive: -16.7%
CCOC(=O)[C@]12CCCC=C1N(Cc1ccc3c(c1)OCO3)C(=O)[C@H](CC(=O)NCC13CC4CC(CC(C4)C1)C3)C2,"inconclusive: 29.1 µM [cytotoxic, single point]",
CCc1ccc2nc(NC(=O)c3ccc4c(=O)[nH]c(CN5CCOCC5)nc4c3)sc2c1,"inconclusive: 23.1 µM [rising, partial curve, poor fit]",
CCNC(=S)N(CCc1c(C)[nH]c2ccc(Cl)cc12)Cc1ccco1,active: 23.1 µM,
O=C(COC(=O)c1ccc([N+](=O)[O-])o1)NC1CCCC1,,inactive: 20.3%
Cc1nnc2ccc(-c3cccc(NS(=O)(=O)c4cc(F)ccc4F)c3)nn12,"inconclusive: 29.1 µM [cytotoxic, partial curve, poor fit]",
OCCN(C=NC1=NN(c2cccc(C(F)(F)F)c2)CC1)CCO,"inconclusive: 20.6 µM [cytotoxic, single point]",
COc1ccc2[nH]c(C(=O)Nc3ccccc3Cl)cc2c1,"inconclusive: 29.1 µM [cytotoxic, single point]",
COc1ccccc1-c1noc(-c2ccc(N3CCN(C)CC3)c([N+](=O)[O-])c2)n1,,inactive: -27.6%
Cc1ccc(NC(=O)c2cc(N3C(=O)C=CC3=O)ccc2N2CCOCC2)cc1,"inconclusive: 29.1 µM [cytotoxic, single point]",
O=S(=O)(NCCC1=CCCCC1)c1cccc(S(=O)(=O)N2CCOCC2)c1,"inconclusive: 16.4 µM [cytotoxic, single point]",
CCOP(=O)(OCC)c1nc(-c2cccc3ccccc23)oc1NCc1ccc(OC)cc1,,inactive: 2.58%
O=C1NCCN(CC2CCN(CCC3CCCC3)CC2)C1=O,,inactive: -2.24%

SMILES,Potency,"activity change, negative = cytotoxic"
Cc1ccc(C2CC(c3cccs3)=NN2C(=O)CSC2=NCCS2)cc1 (stereo not given),"inconclusive: 29.1 µM [cytotoxic, single point]",
COc1ccc(-c2ccc(C(=O)NCc3ccco3)c3occc23)c(C)c1,,inactive: -25.1%
Cc1ccc2nc(NC(=S)NC(=O)c3cccs3)sc2c1,"inconclusive: 29.1 µM [cytotoxic, single point]",
O=C(N/N=C/c1c(O)ccc2ccccc12)C(=O)N1CCCC1,"inconclusive: 16.4 µM [cytotoxic, partial curve, poor fit]",
CCC(C)N1CC(C(=O)O)CC1=O (stereo not given),,inactive: -9.97%
Cc1cc(-n2c(C)cc(C(=O)CSc3nc(N)cc(=O)[nH]3)c2C)no1,"inconclusive: 14.6 µM [cytotoxic, partial curve]",
CCCCCc1c(-c2ccc(OC)c(OC)c2)ncn1CCc1ccccc1OC,"inconclusive: 23.1 µM [cytotoxic, single point]",
CCCN1Cc2cccc(C(=O)NCCc3ccccc3)c2C1=O,,inactive: 13.8%
O=C(COC(=O)COc1ccccc1)NC12CC3CC(CC(C3)C1)C2,,inactive: -3.48%
N#Cc1ccc(C(=O)Nc2nnc(-c3ccco3)o2)cc1,"inconclusive: 18.4 µM [cytotoxic, single point]",
O=C1C2CCCCN2C(=O)N1CCCCN1CCN(c2ccc([N+](=O)[O-])cc2)CC1 (stereo not given),,inactive: 13.7%
Cc1ccccc1CN1CC2=C(CCN(Cc3ccccc3)C2=O)N2CCN=C12,"inconclusive: 7.31 µM [cytotoxic, partial curve]",
CCC(CC)C(=O)NN(C(=O)c1ccncc1)C1CC(=O)N(c2ccccc2)C1=O (stereo not given),"inconclusive: 20.6 µM [rising, single point]",
O=C(OCc1cc(=O)n2nc(-c3cccs3)sc2n1)c1ccccc1,,inactive: 3.73%
O=C(NNc1nc2cc3c(cc2s1)OCCO3)c1ccc(F)cc1,"inconclusive: 29.1 µM [cytotoxic, single point]",
CC1=C(c2ccc(C)cc2)[N+](=O)C(C)(C)N1[O-],,inactive: 4.03%
COCCN(Cc1cc2cc3c(cc2nc1Cl)OCO3)C(=O)Nc1ccc(F)cc1,active: 16.4 µM,
Cc1cccc(C(O)c2ncc(-c3ccccc3)[nH]2)c1C (stereo not given),,inactive: 0%
COc1cccc(C2CC(=O)Nc3cc(OC)c(OC)c(OC)c32)c1OC (stereo not given),"inconclusive: 29.1 µM [cytotoxic, single point]",
CC(O)CNc1ncnc2nc[nH]c12 (stereo not given),,inactive: 2.55%
CC(C)CNC(=O)C1CCN(S(=O)(=O)c2ccc(-n3cnnn3)cc2)CC1,,inactive: -1.06%
O=C(NN=Cc1ccc2c(c1)OCO2)c1ccccc1,"inconclusive: 29.1 µM [cytotoxic, single point]",

# Looked up above.
# Under activity change, negative = cytotoxic, CC1=C(c2ccc(C)cc2)[N+](=O)C(C)(C)N1[O-] has the entry inactive: 4.03%
# Under Potency, Oc1ccc(Cl)cc1C1=NNC(c2cccs2)C1 (stereo not given) has the entry inconclusive: 29.1 µM [cytotoxic, single point]
# Under Potency, COc1ccc(C)cc1NC(=O)CCNC(=O)Cn1ccc2ccccc2c1=O has the entry inconclusive: 23.1 µM [cytotoxic, partial curve, poor fit]
# Under Potency, Cc1ccn2c(Nc3ccccc3)c(-c3ccccn3)nc2c1 has the entry inconclusive: 29.1 µM [cytotoxic, single point]
